Read-outs that look alike come from different tables or passages of the source. Marks after values point to notes of the source that are not given here.
Legend:
[1] = Percent solution pickup, pre- and post-rigor pork semimembranosus muscle (Example 13)
[2] = tested on: aerobic mesophiles, aerobic psychrotrophs
[3] = Percent solution pickup, pre-rigor pork semimembranosus muscle (first study); conditions: range across all treatments (0 mM-32 mM), raw and cooked

N=C(N)NCCC[C@H](N)C(=O)O [L-arginine]
Sample Pickup ([1]; 2 mM L-arginine, post rigor cooked): 20.59^a % | Sample Pickup ([1]; 2 mM L-arginine, post rigor raw): 29.10^a % | Sample Pickup ([1]; 2 mM L-arginine, pre-rigor cooked): 26.75^a % | Sample Pickup ([1]; 2 mM L-arginine, pre-rigor raw): 22.99^a % | Sample Pickup ([1]; 4 mM L-arginine, post rigor cooked): 21.81^a % | Sample Pickup ([1]; 4 mM L-arginine, post rigor raw): 28.22^a % | Sample Pickup ([1]; 4 mM L-arginine, pre-rigor cooked): 27.46^a % | Sample Pickup ([1]; 4 mM L-arginine, pre-rigor raw): 24.21^a % | Sample Pickup ([1]; 8 mM L-arginine, post rigor cooked): 21.60^a % | Sample Pickup ([1]; 8 mM L-arginine, post rigor raw): 28.37^a % | Sample Pickup ([1]; 8 mM L-arginine, pre-rigor cooked): 25.56^a % | Sample Pickup ([1]; 8 mM L-arginine, pre-rigor raw): 20.99^a % | Sample Pickup ([1]; 16 mM L-arginine, post rigor cooked): 21.17^a % | Sample Pickup ([1]; 16 mM L-arginine, post rigor raw): 28.29^a % | Sample Pickup ([1]; 16 mM L-arginine, pre-rigor cooked): 29.33^a % | Sample Pickup ([1]; 16 mM L-arginine, pre-rigor raw): 23.04^a % | Sample Pickup ([1]; 32 mM L-arginine, post rigor cooked): 21.64^a % | Sample Pickup ([1]; 32 mM L-arginine, post rigor raw): 28.18^a % | Sample Pickup ([1]; 32 mM L-arginine, pre-rigor cooked): 26.55^a % | Sample Pickup ([1]; 32 mM L-arginine, pre-rigor raw): 24.84^a % | TBA values (indicator of lipid oxidation) (3000 ppm L-arginine, Day 1): 0.540 | TBA values (indicator of lipid oxidation) (3000 ppm L-arginine, Day 7): 1.000 | TBA values (indicator of lipid oxidation) (3000 ppm L-arginine, Day 14): 1.056 | TBA values (indicator of lipid oxidation) (3000 ppm L-arginine, Day 28): 1.158 | TBA values (indicator of lipid oxidation) (4000 ppm L-arginine, Day 1): 0.577 | TBA values (indicator of lipid oxidation) (4000 ppm L-arginine, Day 7): 0.745 | TBA values (indicator of lipid oxidation) (4000 ppm L-arginine, Day 14): 0.839 | TBA values (indicator of lipid oxidation) (4000 ppm L-arginine, Day 28): 0.718 | TBA values (indicator of lipid oxidation) (5000 ppm L-arginine, Day 1): 0.501 | TBA values (indicator of lipid oxidation) (5000 ppm L-arginine, Day 7): 0.773 | TBA values (indicator of lipid oxidation) (5000 ppm L-arginine, Day 14): 0.854 | TBA values (indicator of lipid oxidation) (5000 ppm L-arginine, Day 28): 0.894 | aerobic plate count (APC) ([2]; 3000 ppm L-arginine, Day 1): 3.29 Log/Colony Forming Units (CFU)/g | aerobic plate count (APC) ([2]; 3000 ppm L-arginine, Day 7): 3.37 Log/Colony Forming Units (CFU)/g | aerobic plate count (APC) ([2]; 3000 ppm L-arginine, Day 14): 3.54 Log/Colony Forming Units (CFU)/g | aerobic plate count (APC) ([2]; 3000 ppm L-arginine, Day 28): 4.78 Log/Colony Forming Units (CFU)/g | aerobic plate count (APC) ([2]; 4000 ppm L-arginine, Day 1): 2.84 Log/Colony Forming Units (CFU)/g | aerobic plate count (APC) ([2]; 4000 ppm L-arginine, Day 7): 3.57 Log/Colony Forming Units (CFU)/g | aerobic plate count (APC) ([2]; 4000 ppm L-arginine, Day 14): 3.36 Log/Colony Forming Units (CFU)/g | aerobic plate count (APC) ([2]; 4000 ppm L-arginine, Day 28): 5.68 Log/Colony Forming Units (CFU)/g | aerobic plate count (APC) ([2]; 5000 ppm L-arginine, Day 1): 2.93 Log/Colony Forming Units (CFU)/g | aerobic plate count (APC) ([2]; 5000 ppm L-arginine, Day 7): 3.39 Log/Colony Forming Units (CFU)/g | aerobic plate count (APC) ([2]; 5000 ppm L-arginine, Day 14): 3.46 Log/Colony Forming Units (CFU)/g | aerobic plate count (APC) ([2]; 5000 ppm L-arginine, Day 28): 3.81 Log/Colony Forming Units (CFU)/g | pickup percentages [3]: 24.38-28.09%

O=NO [Sodium Nitrite, Sodium nitrite, reference compound]
TBA values (indicator of lipid oxidation) (156 ppm sodium nitrite, Day 1): 0.456 | TBA values (indicator of lipid oxidation) (156 ppm sodium nitrite, Day 7): 0.659 | TBA values (indicator of lipid oxidation) (156 ppm sodium nitrite, Day 14): 0.701 | TBA values (indicator of lipid oxidation) (156 ppm sodium nitrite, Day 28): 0.860 | aerobic plate count (APC) ([2]; 156 ppm sodium nitrite, Day 1): 3.08 Log/Colony Forming Units (CFU)/g | aerobic plate count (APC) ([2]; 156 ppm sodium nitrite, Day 7): 3.98 Log/Colony Forming Units (CFU)/g | aerobic plate count (APC) ([2]; 156 ppm sodium nitrite, Day 14): 3.53 Log/Colony Forming Units (CFU)/g | aerobic plate count (APC) ([2]; 156 ppm sodium nitrite, Day 28): 4.07 Log/Colony Forming Units (CFU)/g

Reference: patent US20230029496A1, “AMINO ACID ALTERNATIVE CURING SYSTEM” (THE TEXAS A&M UNIVERSITY SYSTEM, priority 2019, published 2023)
